Measurements taken from PubChem BioAssay AID1671190 (National Center for Advancing Translational Sciences (NCATS), 2021).
Several values for one entry are separate records, joined by “and”; a condition that tells them apart may be missing. Equal entries are not always repeated. The campaign covered roughly 580,000 compounds. About 6,100 (1.1%) were called active. The shares of active, inactive and inconclusive entries below differ from those in the screen. The call rests on the fitted dose curve; in most records, active means well fitted inhibition curve with a large enough effect; inconclusive means small, poorly fitted or top-dose-only effect, or another doubt; inactive means no such curve, though single readings can be large or run the other way. A potency beside an inconclusive call is a rough fit, not a confirmed value.

The chains behind the UniProt entries cited, without tags or fusion partners.
UniProt P18054, whole entry, looked up: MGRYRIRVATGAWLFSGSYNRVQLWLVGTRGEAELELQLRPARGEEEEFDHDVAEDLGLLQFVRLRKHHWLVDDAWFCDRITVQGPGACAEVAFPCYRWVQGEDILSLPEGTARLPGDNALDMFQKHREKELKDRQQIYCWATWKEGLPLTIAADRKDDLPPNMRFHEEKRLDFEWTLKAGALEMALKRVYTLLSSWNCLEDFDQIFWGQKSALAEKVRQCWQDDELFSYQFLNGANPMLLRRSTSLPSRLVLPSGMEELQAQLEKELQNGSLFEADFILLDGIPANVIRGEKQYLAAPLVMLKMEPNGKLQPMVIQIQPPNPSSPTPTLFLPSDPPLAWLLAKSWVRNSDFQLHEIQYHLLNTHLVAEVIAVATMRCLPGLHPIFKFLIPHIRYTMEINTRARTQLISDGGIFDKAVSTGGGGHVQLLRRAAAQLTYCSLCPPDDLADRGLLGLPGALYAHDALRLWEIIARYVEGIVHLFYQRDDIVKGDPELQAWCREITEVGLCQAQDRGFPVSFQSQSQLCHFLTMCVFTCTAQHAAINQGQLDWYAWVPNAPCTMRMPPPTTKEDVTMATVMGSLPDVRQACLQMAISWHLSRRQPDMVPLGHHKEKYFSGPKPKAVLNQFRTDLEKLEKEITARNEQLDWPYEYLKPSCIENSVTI

molecular target: Polyunsaturated fatty acid lipoxygenase ALOX12 (Homo sapiens) (UniProt P18054); test: Primary qHTS assay for inhibitors of human arachidonate 12S-lipoxygenase (ALOX12): Round 2; details: purified 12hLO, xylenol orange hydroperoxide absorbance; activity change, negative = inhibition: at 108 µM (top of the series) unless noted
Outline: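 Hydroperoxide product was detected by ferrous iron/xylenol orange as the 573 to 405 nm absorbance ratio. Arachidonic acid at 40 uM (final) was turned over for 30 min at room temperature by 150 nM human 12hLO, pH 7.0 Hepes buffer, after 15 min compound preincubation.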
On the % scale 0 is the no-effect control and ±100 the full control effect; potency means the concentration at half of the fitted maximal effect.

SMILES	Potency	activity change, negative = inhibition
Cc1ccc(NC(=O)CN2C(=O)N/C(=C/c3cc(C)n(-c4cccc(C(=O)O)c4)c3C)C2=O)cc1	active: 17.8 µM	–
Cc1cccc(NC(=O)CSc2ncc3c(n2)-c2ccc(Cl)cc2N(C)S3(=O)=O)c1	inactive	–
CCOc1ccc2nc(CN3CCN(Cc4ccsc4)C(CCO)C3)ccc2c1 (stereo unspecified)	inconclusive: 39.8 µM [inhibitor, single point]	–
N#Cc1cc(C(=O)c2cc(F)ccc2O)cn(-c2ccccc2C(=O)O)c1=O	inconclusive: 31.6 µM [inhibitor, partial curve]	–
CC1CN(CCCCOc2ccc(Cl)c3ccccc23)CC(C)O1 (stereo unspecified)	inconclusive: 5.62 µM [inhibitor, full curve]	–
COc1ccc(CCNC(=S)NC(=O)c2cccc(Cl)c2)cc1OC	inconclusive: 100 µM [inhibitor, partial curve, poor fit]	–
CC1CN(c2nc(-c3ccc(Br)cc3)nnc2-c2ccccc2)CC(C)N1 (stereo unspecified)	inconclusive: 44.7 µM [inhibitor, single point]	–
Cc1ccc([S+](=O)([O-])N2CC3(Cc4ccccc4N([S+](C)(=O)[O-])C3)C2)cc1	inconclusive: 10 µM [inhibitor, full curve, poor fit]	–
CCN1CCN(c2ccc(NC(=O)c3ccccc3OC)cc2Cl)CC1	inactive	–
COc1cc(-c2nnc(SCc3cc(=O)oc4cc(O)c(O)cc34)o2)cc(OC)c1OC	inconclusive: 2.24 µM [inhibitor, full curve, poor fit]	–
CCN(Cc1ccccc1)C(=O)C1CCN(Cc2ccc(OC)c(OC)c2OC)CC1	inconclusive: 4.47 µM [inhibitor, full curve]	–
O=C(c1cncc(Br)c1)N1CCN(S(=O)(=O)c2ccccc2)CC1	inconclusive: 112 µM [inhibitor, single point]	–
Cc1ccc2nc3[nH]c(=O)[nH]c(=O)c3c(N)c2c1	inconclusive: 112 µM [inhibitor, partial curve, poor fit]	–
Cc1ccc(C2CC(=O)NC(SCCC(C)C)=C2C#N)cc1 (stereo unspecified)	inconclusive: 56.2 µM [inhibitor, partial curve, poor fit]	–
Cc1ccc(CSc2nc3ccccc3c(=O)n2Cc2ccco2)cc1	inactive	–
Cc1cc(C)n2[nH]c(=O)cc2n1	inconclusive: 2.24 µM [inhibitor, full curve, poor fit]	–
COc1ccc(Nc2oc(-c3ccc(COc4ccccc4C)o3)nc2C#N)cc1	inconclusive: 44.7 µM [inhibitor, partial curve, poor fit]	–
O=C(NC1CC1)C(NCc1ccc(F)cc1)c1ccc(F)cc1 (stereo unspecified)	inactive	–
CC(C)c1nc(-c2ccccc2)c(-c2ccccc2)[nH]1	inactive	–
CC[C@H](C)[C@H]1CNC(=O)C(=O)N1CC1CCN(CCc2ccc(OC)c(OC)c2)CC1	inconclusive: 35.5 µM [inhibitor, single point]	–
Cc1cc(C)c2cc(CN(Cc3nnnn3C3CCCCC3)CC3CCCO3)c(=O)[nH]c2c1 (stereo unspecified)	active: 11.2 µM	–
CN(C)S(=O)(=O)c1cccc(NC(=S)N/N=C/C(c2ccccc2)c2ccccc2)c1	inconclusive: 15.8 µM [inhibitor, full curve, poor fit]	–

Reformatted comma-delimited: 14 of the compounds above.
SMILES,Potency,"activity change, negative = inhibition"
Cc1ccc(NC(=O)CN2C(=O)N/C(=C/c3cc(C)n(-c4cccc(C(=O)O)c4)c3C)C2=O)cc1,active: 17.8 µM,–
Cc1cccc(NC(=O)CSc2ncc3c(n2)-c2ccc(Cl)cc2N(C)S3(=O)=O)c1,inactive,–
CCOc1ccc2nc(CN3CCN(Cc4ccsc4)C(CCO)C3)ccc2c1 (stereo unspecified),"inconclusive: 39.8 µM [inhibitor, single point]",–
N#Cc1cc(C(=O)c2cc(F)ccc2O)cn(-c2ccccc2C(=O)O)c1=O,"inconclusive: 31.6 µM [inhibitor, partial curve]",–
COc1ccc(CCNC(=S)NC(=O)c2cccc(Cl)c2)cc1OC,"inconclusive: 100 µM [inhibitor, partial curve, poor fit]",–
CCN1CCN(c2ccc(NC(=O)c3ccccc3OC)cc2Cl)CC1,inactive,–
O=C(c1cncc(Br)c1)N1CCN(S(=O)(=O)c2ccccc2)CC1,"inconclusive: 112 µM [inhibitor, single point]",–
Cc1ccc2nc3[nH]c(=O)[nH]c(=O)c3c(N)c2c1,"inconclusive: 112 µM [inhibitor, partial curve, poor fit]",–
Cc1ccc(C2CC(=O)NC(SCCC(C)C)=C2C#N)cc1 (stereo unspecified),"inconclusive: 56.2 µM [inhibitor, partial curve, poor fit]",–
Cc1ccc(CSc2nc3ccccc3c(=O)n2Cc2ccco2)cc1,inactive,–
Cc1cc(C)n2[nH]c(=O)cc2n1,"inconclusive: 2.24 µM [inhibitor, full curve, poor fit]",–
CC(C)c1nc(-c2ccccc2)c(-c2ccccc2)[nH]1,inactive,–
Cc1cc(C)c2cc(CN(Cc3nnnn3C3CCCCC3)CC3CCCO3)c(=O)[nH]c2c1 (stereo unspecified),active: 11.2 µM,–
CN(C)S(=O)(=O)c1cccc(NC(=S)N/N=C/C(c2ccccc2)c2ccccc2)c1,"inconclusive: 15.8 µM [inhibitor, full curve, poor fit]",–

(cont.)

SMILES	Potency	activity change, negative = inhibition
Cc1ccc(C(C)C)c(OCCSc2nc3ccccc3n2CC(O)CO)c1 (stereo unspecified)	inconclusive: 141 µM [inhibitor, single point] and inconclusive: 112 µM [inhibitor, single point]	–
NC(=S)N/N=C1\C2C3C(Br)C4C5CC(C1C53)C24 (stereo unspecified)	inconclusive: 79.4 µM [inhibitor, single point]	–
Cc1ccc(C)c(-c2csc(-c3ccccc3)n2)c1	inconclusive: 39.8 µM [inhibitor, single point]	–
COc1ccc(S(=O)(=O)N2CCCC2C(=O)Nc2ccc(C)cc2)cc1 (stereo unspecified)	inconclusive: 158 µM [inhibitor, single point]	–
CCCN(CCC)c1ccc(NS(=O)(=O)c2ccc(C(C)=O)cc2)cc1C(=O)O	inconclusive: 14.1 µM [inhibitor, partial curve, poor fit]	–
C[C@@H](O)C1NC(=O)[C@H](CCCCN)NC(=O)c2cc([N+](=O)[O-])cc(I)c2OCC[C@@H](C(N)=O)NC1=O (stereo partly specified)	inconclusive: 44.7 µM [inhibitor, partial curve, poor fit]	–
COc1ccc(C2NC(=O)C(=O)/C2=C(\O)c2ccc(Cl)cc2)cc1OC (stereo unspecified)	active: 28.2 µM	–
CC(C)(C)CC(=O)NC(=S)NCCc1ccccc1	inconclusive: 89.1 µM [inhibitor, partial curve, poor fit]	–
O=C(CSc1ccccc1)Nc1ccc(N2CCOCC2)c(F)c1	inconclusive: 1.78 µM [inhibitor, full curve, poor fit]	–
O=C(O)c1cccc(N/N=C/C2=C(Cl)c3cc(Cl)ccc3SC2)c1	inconclusive: 44.7 µM [inhibitor, partial curve, poor fit]	–
CC/C=C\CCOC(=O)c1ccccc1	inconclusive: 79.4 µM [inhibitor, single point]	–
O=C(NCc1ccco1)c1ccc2c(c1)N(Cc1ccc(Cl)cc1)C(=O)c1ccccc1S2	inconclusive: 50.1 µM [inhibitor, partial curve, poor fit]	–
NC(=O)CCC(NC(=O)C1(c2ccccc2)CCCC1)C(N)=O (stereo unspecified)	inactive	–
O=C(Nc1sc2c(c1C(=O)O)CCCC2)c1ccc(Cl)cc1	inconclusive: 0.355 µM [inhibitor, full curve, poor fit]	–
COc1cc2c(-c3ccc4[nH]ccc4c3)c(-c3ccc(C#N)cc3)oc(=O)c2cc1OC	inconclusive: 126 µM [inhibitor, single point]	–
Cc1cc(C)c(S(=O)(=O)C(C)C)c(=O)[nH]1	inactive	–
N#Cc1cccc(-c2n[nH]c3c2CC(=O)N(Cc2ccccc2)C3)c1	inconclusive: 44.7 µM [inhibitor, full curve, poor fit]	–
Cc1c(N=Cc2ccc(Cl)o2)c(=O)n(-c2ccccc2)n1C	inconclusive: 35.5 µM [inhibitor, partial curve]	–
C=CCc1cc(Cl)ccc1OCCOCCNCCOC	inactive	–
CN(C)C(=O)C(C)(C)Oc1nn(Cc2cccc(Cl)c2)c2ccccc12	inconclusive: 126 µM [inhibitor, single point]	–
COC(=O)c1cc(C(=O)Nc2nnc(CC(C)(C)C)s2)cc([N+](=O)[O-])c1	inactive	–
COc1ccc(NC(=O)N[C@@H]2C=C[C@@H](c3c(C)nn(-c4ccccn4)c3C)C2)cc1	inconclusive: 25.1 µM [inhibitor, full curve]	–

SMILES	Potency	activity change, negative = inhibition
Cc1nnc(NC(=O)CSCc2cc(=O)c3ccccc3[nH]2)s1	inactive	–
O=C(NC1CCCc2ccccc21)C1CCC(CNS(=O)(=O)c2cccc3nsnc23)CC1 (stereo unspecified)	inconclusive: 112 µM [inhibitor, partial curve, poor fit]	–
CC(=O)c1cc2c(cc1NC(=O)CSc1nnc(C3CC3)n1Cc1ccccc1)OCO2	inactive	–
COc1ccc(OCC(=O)Nc2ccccc2OC)cc1	inactive	–
CCOC(=O)c1c(N2C(=O)C3C4C=CC(O4)C3C2=O)sc2c1CCCC2 (stereo unspecified)	inconclusive: 3.98 µM [inhibitor, full curve, poor fit]	–
C=CC[C@@H](CC(=O)N[C@@H](CO)Cc1ccccc1)C(=O)N[C@H](COC(=O)[C@H](CC=C)CC(=O)OC(C)(C)C)Cc1c[nH]c2ccccc12	inactive	–
CCC(=O)N1CCN(c2nc3c(s2)CC(C(=O)Nc2ccc(CC)cc2)CC3)CC1 (stereo unspecified)	inactive	–
O=S(=O)(c1ccccc1)N1CCCc2nc(-c3ccc(Br)cc3)ccc21	inconclusive: 31.6 µM [inhibitor, single point]	–
CCOC(=O)Cc1csc(NC(=O)CSc2ncnc3c2cnn3-c2ccccc2Cl)n1	inactive	–
CCc1c(C)sc(NC(=O)C2CC3CCC2C3)c1C#N (stereo unspecified)	active: 15.8 µM	–
Cc1cc(Nc2ccc(C(=O)O)c(O)c2)n2ncnc2n1	–	inconclusive: -35.2% [inhibitor]
Fc1ccc(NC(=S)NCCN2CCOCC2)cc1	inactive	–
COc1ccc(CCNC(=O)CN(c2cccc(Cl)c2Cl)S(=O)(=O)c2ccccc2)cc1	inactive	–
CC(C)c1nn2c(=O)cc(COC(=O)c3ccccc3NC(=O)c3cccc(Cl)c3)nc2s1	inconclusive: 112 µM [inhibitor, single point]	–
Cc1ccc(SCc2ccccc2C#N)cc1	inactive	–
COc1cc(NCCCCC(C)N)c2nccc(C)c2c1 (stereo unspecified)	inconclusive: 50.1 µM [inhibitor, partial curve, poor fit]	–
FC(F)(F)c1ccccc1NC(=S)N1CCCC1	inconclusive: 141 µM [inhibitor, partial curve, poor fit]	–
O=C(Cc1ccc(O)cc1)N1Cc2ccccc2CC2(CCN(Cc3ccncc3)C2)C1 (stereo unspecified)	inconclusive: 35.5 µM [inhibitor, full curve]	–
CCOc1cc(C2C3=C(CCCC3=O)NC3=C2C(=O)CCC3)cc(Cl)c1O	inconclusive: 50.1 µM [inhibitor, partial curve, poor fit]	–
CC(C)(C)CC(=O)NC(=S)Nc1ccccc1[N+](=O)[O-]	inconclusive: 89.1 µM [inhibitor, partial curve, poor fit]	–
CCN(CC)C(=S)Nc1ccc(F)cc1	inactive	–
O=C(COc1ccc(F)cc1)N1CCCN(c2cc(-c3ccc(Br)cc3)[nH]n2)CC1	inconclusive: 14.1 µM [inhibitor, full curve, poor fit]	–
